Measured values taken from patent US20250205349A1, “ANTI-HUMAN TROP2 ANTIBODY-CAMPTOTHECIN DRUG CONJUGATE AND MEDICAL USE THEREOF” (SYSTIMMUNE, INC., priority 2021, published 2025).
No constants are given. Whether binding was seen depends on the method and setting. Some entries that bind do so weakly or less than the wild type.

By UniProt entry, the sequences of proteins in these tests, tags left out. Where a name states a change or a piece, a line headed by the entry shows the natural chain unless it says otherwise. Chains listed by the source or under a name are the forms on record and can include a tag or linker.
recombinant TROP2-His*6 antigen (P09758, form named): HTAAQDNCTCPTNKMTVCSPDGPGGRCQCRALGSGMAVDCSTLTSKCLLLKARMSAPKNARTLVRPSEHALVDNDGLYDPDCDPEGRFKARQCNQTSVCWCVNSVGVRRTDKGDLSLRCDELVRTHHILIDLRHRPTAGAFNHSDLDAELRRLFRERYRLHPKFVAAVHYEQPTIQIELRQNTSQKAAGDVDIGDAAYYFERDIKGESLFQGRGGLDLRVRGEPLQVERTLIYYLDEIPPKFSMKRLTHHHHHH

Molecular target: recombinant TROP2-His*6 antigen (UniProt P09758)
Assay: ELISA; TROP2-His*6 coated on plate, goat anti-human Fc-HRP detection, OD450

B1: antibody hu4D3 (antibody, human IgG1, kappa, V domains shown)
VH: QVQLVQSGAEVKKPGASVKLSCKASGYTFTSFDINWVRQAPEQRLEWMGWIFPGDGNTKYSQKFQGRATITRDTSASTAYMELSSLRSEDTAVYYCVRGEALYYFDYWGQGTLVTVSS
VL: DIQMTQSPSSLSASVGDRVTITCRASQDINKYLAWYQQKPGKVPKLLIYSTSTLQSGVPSRFSGSGSGTDFTLTISSLQPEDVATYYCLQYDDLFTFGQGTKLEIKR
- binding: binds
